Data: patent US20260028401A1 (SHENGHE CHINA BIOPHARMACEUTICAL, published 2026)
These are yes or no findings as the source states them, for the method shown. Some entries that bind do so weakly or less than the wild type.

The chains behind the UniProt entries cited, without tags or fusion partners. Where a name states a change or a piece, a line headed by the entry shows the natural chain unless it says otherwise. Residues count along the entry.
UniProt Q8N423: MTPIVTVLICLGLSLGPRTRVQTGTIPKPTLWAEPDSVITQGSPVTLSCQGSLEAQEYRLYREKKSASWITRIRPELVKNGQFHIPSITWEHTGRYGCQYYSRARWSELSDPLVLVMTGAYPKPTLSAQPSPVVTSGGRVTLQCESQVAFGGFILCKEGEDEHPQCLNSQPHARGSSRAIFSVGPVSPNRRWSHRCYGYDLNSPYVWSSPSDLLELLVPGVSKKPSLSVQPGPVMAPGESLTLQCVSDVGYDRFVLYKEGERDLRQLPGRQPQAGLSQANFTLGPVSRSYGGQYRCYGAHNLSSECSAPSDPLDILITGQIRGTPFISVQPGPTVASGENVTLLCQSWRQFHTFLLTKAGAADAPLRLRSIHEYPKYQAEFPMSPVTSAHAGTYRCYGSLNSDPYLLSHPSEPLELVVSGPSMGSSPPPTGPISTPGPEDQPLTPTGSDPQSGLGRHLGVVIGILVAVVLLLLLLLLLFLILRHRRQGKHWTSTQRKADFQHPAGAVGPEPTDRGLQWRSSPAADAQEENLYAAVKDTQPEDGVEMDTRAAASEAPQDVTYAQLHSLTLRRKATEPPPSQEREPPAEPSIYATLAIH
ILT4 on CHO-ILT4 cells (Manufacturer: Kang Yuan Bochuang, Cat: KC-1473): residues 22-597 of Q8N423
Human LILRB2/CD85d/ILT4 Protein, His Tag (Manufacturer: KACTUS, Cat: LIL-HM4B2): residues 22-460 of Q8N423

Assays:
[1] = target: Human LILRB2/CD85d/ILT4 Protein, His Tag (Manufacturer: KACTUS, Cat: LIL-HM4B2) (human) (UniProt Q8N423); test: ELISA, plate coated with Human LILRB2 at 1 ug/mL, anti-VHH-HRP detection
[2] = target: Human LILRB2/CD85d/ILT4 Protein, His Tag (Manufacturer: KACTUS, Cat: LIL-HM4B2) (human) (UniProt Q8N423); test: ELISA, Human LILRB2 coated at 1 ug/mL, anti-VHH-HRP secondary, OD450
[3] = target: ILT4 on CHO-ILT4 cells (Manufacturer: Kang Yuan Bochuang, Cat: KC-1473) (UniProt Q8N423); test: flow cytometry titration on CHO-ILT4 cells, anti-camelid VHH PE secondary
[4] = target: ILT4 on CHO-ILT4 cells (Manufacturer: Kang Yuan Bochuang, Cat: KC-1473) (UniProt Q8N423); test: flow cytometry on CHO-ILT4 cells, single concentration 2.5 ug/mL, anti-VHH PE detection
[5] = target: ILT4 on CHO-ILT4 cells (Manufacturer: Kang Yuan Bochuang, Cat: KC-1473) (UniProt Q8N423); test: flow cytometry on CHO-ILT4 cells, single concentration (2.5 ug/mL final per paragraph 56), anti-camelid VHH PE secondary

Measured: binding

B1: the antibody of the present invention (anti-ILT4 single-domain antibody, alpaca VHH, SEQ ID NO: 4) (VHH)
VHH: EVQLVESGGGLGQAGGSLRLSCVVSGRTFSRYAMGWFRQAPGKEREFVAAISWSPGDITTYADSVRGRFTISRDNAKNTVYLQMNSLKPEDTAVYYCAADPTAWGTQYDYWGQGTQVTVSS
notes: VHH screened from an alpaca immune library
binds: all assays above
